US20200165351A1 (University of California, published 2020)
Results are given in words; binding and its absence hold for the method and conditions named. Some binding calls cover weakened binding; strength is not graded here. Sequences can lack the tags named with a protein.

Tests used:
[1] = target: T1, recombinant human N-cadherin ECD3-Fc fusion protein (human; murine) (UniProt P19022); assay: immunoblot, scFv detected with anti-c-Myc
T1 sequence (looked up): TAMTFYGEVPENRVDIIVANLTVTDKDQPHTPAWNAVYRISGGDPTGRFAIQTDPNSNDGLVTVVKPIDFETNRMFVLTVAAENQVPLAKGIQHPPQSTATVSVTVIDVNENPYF

[2] = target: T2, recombinant human N-cadherin ECD1-3-Fc (human; murine, UniProt P19022 160-497); assay: ELISA, saturation binding on immobilized antigen
T2 construct: range 160-497; Cloned into pSECTag2A(AgeI); produced in 293-F cells, Protein A purified; also called Ncad-ECD1-3-Fc; not shown: murine gamma 2a Fc region
T2 sequence (looked up): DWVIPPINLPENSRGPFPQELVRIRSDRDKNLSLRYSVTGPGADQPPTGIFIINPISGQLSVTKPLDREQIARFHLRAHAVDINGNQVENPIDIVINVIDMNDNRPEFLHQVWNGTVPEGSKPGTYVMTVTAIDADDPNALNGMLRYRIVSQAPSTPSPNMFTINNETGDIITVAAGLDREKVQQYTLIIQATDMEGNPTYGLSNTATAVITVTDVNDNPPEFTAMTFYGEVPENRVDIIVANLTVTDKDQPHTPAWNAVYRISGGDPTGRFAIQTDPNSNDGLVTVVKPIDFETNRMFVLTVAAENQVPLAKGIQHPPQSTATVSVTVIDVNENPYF
Description: Saturation binding of the humanized scFv fragments was performed on immobilized recombinant human Ncad-ECD1-3-Fc in ELISA (FIG. 8) confirming successful humanization and retained antigen specificity.

[3] = target: T3, recombinant human N-cadherin ECD2-Fc fusion protein (human; murine) (UniProt P19022); assay: immunoblot, scFv detected with anti-c-Myc
T3 sequence (looked up): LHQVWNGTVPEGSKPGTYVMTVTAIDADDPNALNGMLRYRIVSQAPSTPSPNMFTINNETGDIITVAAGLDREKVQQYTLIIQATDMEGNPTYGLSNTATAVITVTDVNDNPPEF

[4] = target: T2, recombinant human N-cadherin ECD1-3-Fc; assay: immunoblot, scFv detected with anti-c-Myc

Binder	binding [1]	binding [2]	binding [3]	binding [4]
humanized 2A9 scFv (scFv, VH-(G4S)3-VL scFv secreted with the Ig kappa leader; also called hu2A9 scFv; scFv hu2A9; not shown: C-terminal tag from vector pSECTag2A (His-tag; detected through c-Myc)) scFv: QVQLVQSGAEVKKPGASVKLSCKASGYTFTSYWMQWVRQAPGQGLEWIGAIYPGDGETTYTQKFKGRVTMTADTSISTAYMELSRLRSDDTAVYYCAKGDGYWAMDYWGQGTLVTVSSGGGGSGGGGSGGGGSDVVMTQSPLSLPVTLGQPASISCRSSQSLVHSNGNTYLHWYQQRPGQSPRLLIYKVSNRFSGVPDRFSGSGSGTDFTLKISRVEAEDVGVYYCSQSTHVPLTFGAGTKLELK	binds			
humanized 1H7 scFv v1 (scFv) scFv: QVQLVQSGAEVKKPGASVKVSCKASGFTFTDYLIQWVRQAPGQGLEWIGWIYPGSGSIKYNEKFQGRVTMTADTSINTAYMELSRLRSDDTAVYFCARRGDWGGFFDYWGQGTLVTVSSGGGGSGGGGSGGGGSEIVLTQSPATLSLSPGERATLSCTASSSVSSSYLHWYQQKPGLAPRLWIFSTSNLASGIPDRFSGSGSGTDFTLTISRLEPEDFAVYYCHQYHRSLTFGGGTKVEIK		binds	binds	binds
